From patent US8569380B2, “Oligomer-tricyclic conjugates” (Nektar Therapeutics, priority 2007, dated 2013)

Tested on: sodium channels (neuronal INa) in isolated rat dorsal root ganglion cells
Test: Sodium channel assay, whole-cell patch clamp, neuronal INa
Format: cell-based
Conditions: relative to carbamazepine; for Neuronal INa Fold Change Relative to Parent, 0.1 Hz: pacing 0.1 Hz; for Neuronal INa Fold Change Relative to Parent, 3 Hz: pacing 3 Hz

Compound | Neuronal INa Fold Change Relative to Parent, 0.1 Hz | Neuronal INa Fold Change Relative to Parent, 3 Hz
NC(=O)N1c2ccccc2C=Cc2ccccc21 [Carbamazepine, reference compound] | 1.0 | 1.0
COCCOCCOCCNC(=O)N1c2ccccc2C=Cc2ccccc21 [mPEG3-N-Carbamazepine] | 1.4 | 5.1
COCCOCCOCCOCCOCCOCCOCCNC(=O)N1c2ccccc2C=Cc2ccccc21 [mPEG7-N-Carbamazepine] | 1.4 | 1.4

Some results come without the dose or concentration used.
